Data reported in the supplement of paper PMC12067093, “Discovery and optimisation of a covalent ligand for TRIM25 and its application to targeted protein ubiquitination” (Chemical Science, 2025).
Some of the results follow.

Chains of the proteins cited; added tags and fusions are not shown. Lines headed by an entry give the natural chain unless they say otherwise; changes in a name come on top.
UniProt Q14764, whole entry, looked up: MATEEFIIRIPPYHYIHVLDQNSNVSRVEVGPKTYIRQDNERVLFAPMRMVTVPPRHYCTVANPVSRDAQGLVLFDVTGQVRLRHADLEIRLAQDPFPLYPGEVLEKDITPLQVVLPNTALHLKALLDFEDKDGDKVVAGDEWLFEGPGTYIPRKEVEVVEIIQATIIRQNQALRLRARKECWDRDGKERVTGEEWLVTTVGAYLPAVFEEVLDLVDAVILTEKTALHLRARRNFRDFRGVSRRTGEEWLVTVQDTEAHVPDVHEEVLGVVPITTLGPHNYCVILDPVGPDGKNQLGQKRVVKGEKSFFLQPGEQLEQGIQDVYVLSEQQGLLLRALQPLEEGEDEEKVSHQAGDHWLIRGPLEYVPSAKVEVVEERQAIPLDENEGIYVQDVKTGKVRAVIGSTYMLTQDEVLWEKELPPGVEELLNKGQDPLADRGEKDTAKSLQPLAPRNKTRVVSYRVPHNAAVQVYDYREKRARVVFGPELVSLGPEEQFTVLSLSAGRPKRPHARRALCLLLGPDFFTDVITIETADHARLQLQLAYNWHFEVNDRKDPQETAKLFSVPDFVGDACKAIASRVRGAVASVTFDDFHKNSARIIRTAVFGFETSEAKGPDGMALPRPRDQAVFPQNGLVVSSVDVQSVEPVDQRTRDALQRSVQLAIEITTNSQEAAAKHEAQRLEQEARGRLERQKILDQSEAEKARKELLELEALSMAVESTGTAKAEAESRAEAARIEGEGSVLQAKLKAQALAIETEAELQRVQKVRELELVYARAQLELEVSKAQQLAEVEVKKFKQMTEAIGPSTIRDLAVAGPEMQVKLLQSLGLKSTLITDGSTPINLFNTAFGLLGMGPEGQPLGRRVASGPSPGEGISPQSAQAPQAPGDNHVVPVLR
UniProt P58546, whole entry, looked up: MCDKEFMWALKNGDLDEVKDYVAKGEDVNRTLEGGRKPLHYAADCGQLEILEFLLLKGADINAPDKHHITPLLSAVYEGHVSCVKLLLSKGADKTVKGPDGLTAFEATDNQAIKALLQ
UniProt Q9BQG0: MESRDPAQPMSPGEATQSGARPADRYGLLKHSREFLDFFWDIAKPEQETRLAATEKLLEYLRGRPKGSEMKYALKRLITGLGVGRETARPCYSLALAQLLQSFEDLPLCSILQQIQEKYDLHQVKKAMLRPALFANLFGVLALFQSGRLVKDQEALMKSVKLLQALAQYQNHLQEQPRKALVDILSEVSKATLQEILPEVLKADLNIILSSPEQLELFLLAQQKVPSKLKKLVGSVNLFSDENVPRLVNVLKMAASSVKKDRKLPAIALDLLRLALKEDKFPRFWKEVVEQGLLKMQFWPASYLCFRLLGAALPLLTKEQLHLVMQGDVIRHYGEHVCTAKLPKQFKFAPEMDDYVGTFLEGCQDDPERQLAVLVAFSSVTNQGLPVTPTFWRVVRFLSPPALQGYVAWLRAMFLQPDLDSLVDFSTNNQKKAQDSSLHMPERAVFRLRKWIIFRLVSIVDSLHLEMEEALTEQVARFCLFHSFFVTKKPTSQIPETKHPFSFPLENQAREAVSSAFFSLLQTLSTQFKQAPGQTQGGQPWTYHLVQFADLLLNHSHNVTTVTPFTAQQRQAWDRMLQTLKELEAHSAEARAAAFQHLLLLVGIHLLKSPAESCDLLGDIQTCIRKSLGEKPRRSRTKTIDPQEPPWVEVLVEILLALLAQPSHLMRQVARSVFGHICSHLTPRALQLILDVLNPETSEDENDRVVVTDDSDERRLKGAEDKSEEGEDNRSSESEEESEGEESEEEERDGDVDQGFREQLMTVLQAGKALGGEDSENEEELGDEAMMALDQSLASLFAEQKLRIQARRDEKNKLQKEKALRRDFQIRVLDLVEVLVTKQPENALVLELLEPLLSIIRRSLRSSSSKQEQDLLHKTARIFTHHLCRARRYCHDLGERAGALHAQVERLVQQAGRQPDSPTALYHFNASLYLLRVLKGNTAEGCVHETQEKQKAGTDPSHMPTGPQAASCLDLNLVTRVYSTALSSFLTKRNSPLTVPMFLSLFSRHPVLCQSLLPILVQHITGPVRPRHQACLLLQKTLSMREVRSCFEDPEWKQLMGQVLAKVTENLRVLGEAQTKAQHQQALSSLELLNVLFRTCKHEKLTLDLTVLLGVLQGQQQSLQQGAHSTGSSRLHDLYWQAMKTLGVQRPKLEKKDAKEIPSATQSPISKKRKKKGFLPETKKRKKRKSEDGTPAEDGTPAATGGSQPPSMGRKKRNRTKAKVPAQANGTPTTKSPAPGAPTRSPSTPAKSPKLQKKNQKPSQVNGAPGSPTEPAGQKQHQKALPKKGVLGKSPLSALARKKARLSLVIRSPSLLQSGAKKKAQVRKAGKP
UniProt Q7Z6M4: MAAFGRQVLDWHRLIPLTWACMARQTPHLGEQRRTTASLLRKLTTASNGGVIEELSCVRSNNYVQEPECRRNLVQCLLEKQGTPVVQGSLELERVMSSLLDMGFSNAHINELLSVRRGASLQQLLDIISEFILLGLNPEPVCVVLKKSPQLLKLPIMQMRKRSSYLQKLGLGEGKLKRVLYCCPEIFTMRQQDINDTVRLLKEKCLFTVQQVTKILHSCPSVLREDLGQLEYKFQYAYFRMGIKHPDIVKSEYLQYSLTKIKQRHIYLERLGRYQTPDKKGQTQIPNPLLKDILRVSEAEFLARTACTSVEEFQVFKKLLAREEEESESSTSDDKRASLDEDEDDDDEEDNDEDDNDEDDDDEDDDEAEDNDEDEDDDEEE
UniProt P35579, whole entry, looked up: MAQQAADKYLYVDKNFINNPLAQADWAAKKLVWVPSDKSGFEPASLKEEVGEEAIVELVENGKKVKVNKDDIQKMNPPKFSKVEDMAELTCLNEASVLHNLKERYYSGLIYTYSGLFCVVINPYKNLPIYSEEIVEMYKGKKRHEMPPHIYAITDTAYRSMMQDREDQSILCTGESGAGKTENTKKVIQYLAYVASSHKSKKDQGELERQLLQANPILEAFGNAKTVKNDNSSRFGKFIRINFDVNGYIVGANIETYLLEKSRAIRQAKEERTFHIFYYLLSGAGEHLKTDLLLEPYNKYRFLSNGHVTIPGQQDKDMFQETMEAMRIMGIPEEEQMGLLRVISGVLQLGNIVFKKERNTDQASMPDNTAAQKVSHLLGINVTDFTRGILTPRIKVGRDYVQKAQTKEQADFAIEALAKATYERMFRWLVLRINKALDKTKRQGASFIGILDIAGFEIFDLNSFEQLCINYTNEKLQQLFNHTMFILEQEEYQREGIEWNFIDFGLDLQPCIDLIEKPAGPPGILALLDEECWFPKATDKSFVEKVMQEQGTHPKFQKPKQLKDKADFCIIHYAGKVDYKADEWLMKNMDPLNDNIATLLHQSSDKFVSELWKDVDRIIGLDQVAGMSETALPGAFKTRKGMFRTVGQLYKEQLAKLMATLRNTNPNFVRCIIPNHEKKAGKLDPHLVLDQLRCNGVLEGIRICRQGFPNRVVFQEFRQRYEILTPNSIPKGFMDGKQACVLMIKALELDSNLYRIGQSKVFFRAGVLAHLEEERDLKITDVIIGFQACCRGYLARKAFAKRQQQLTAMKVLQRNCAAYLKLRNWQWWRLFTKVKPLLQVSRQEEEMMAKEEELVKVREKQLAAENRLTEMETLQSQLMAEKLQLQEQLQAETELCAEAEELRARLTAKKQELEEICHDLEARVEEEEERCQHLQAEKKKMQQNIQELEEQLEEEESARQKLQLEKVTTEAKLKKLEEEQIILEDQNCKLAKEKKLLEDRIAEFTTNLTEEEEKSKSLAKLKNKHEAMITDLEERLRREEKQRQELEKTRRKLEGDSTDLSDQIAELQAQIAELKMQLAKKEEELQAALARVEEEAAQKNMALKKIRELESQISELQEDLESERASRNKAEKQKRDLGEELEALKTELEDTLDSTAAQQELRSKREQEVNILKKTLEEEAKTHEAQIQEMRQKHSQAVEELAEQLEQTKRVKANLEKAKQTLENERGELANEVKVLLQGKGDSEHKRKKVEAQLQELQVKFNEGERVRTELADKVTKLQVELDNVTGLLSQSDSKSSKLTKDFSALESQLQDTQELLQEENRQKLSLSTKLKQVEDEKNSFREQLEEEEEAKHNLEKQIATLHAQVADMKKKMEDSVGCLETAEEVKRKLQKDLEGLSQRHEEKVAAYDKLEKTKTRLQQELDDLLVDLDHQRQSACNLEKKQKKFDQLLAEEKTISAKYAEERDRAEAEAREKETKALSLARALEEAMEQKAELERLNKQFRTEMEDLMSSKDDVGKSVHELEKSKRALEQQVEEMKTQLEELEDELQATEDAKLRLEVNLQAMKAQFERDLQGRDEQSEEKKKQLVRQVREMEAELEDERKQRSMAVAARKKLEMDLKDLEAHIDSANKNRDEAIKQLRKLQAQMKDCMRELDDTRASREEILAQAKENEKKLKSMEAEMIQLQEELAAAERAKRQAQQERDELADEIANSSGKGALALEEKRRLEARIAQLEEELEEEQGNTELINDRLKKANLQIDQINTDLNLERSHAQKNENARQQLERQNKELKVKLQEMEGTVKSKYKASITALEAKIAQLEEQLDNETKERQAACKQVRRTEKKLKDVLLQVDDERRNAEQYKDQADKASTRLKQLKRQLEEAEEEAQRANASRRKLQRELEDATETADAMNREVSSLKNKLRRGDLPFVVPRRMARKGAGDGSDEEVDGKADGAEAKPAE
UniProt P52701: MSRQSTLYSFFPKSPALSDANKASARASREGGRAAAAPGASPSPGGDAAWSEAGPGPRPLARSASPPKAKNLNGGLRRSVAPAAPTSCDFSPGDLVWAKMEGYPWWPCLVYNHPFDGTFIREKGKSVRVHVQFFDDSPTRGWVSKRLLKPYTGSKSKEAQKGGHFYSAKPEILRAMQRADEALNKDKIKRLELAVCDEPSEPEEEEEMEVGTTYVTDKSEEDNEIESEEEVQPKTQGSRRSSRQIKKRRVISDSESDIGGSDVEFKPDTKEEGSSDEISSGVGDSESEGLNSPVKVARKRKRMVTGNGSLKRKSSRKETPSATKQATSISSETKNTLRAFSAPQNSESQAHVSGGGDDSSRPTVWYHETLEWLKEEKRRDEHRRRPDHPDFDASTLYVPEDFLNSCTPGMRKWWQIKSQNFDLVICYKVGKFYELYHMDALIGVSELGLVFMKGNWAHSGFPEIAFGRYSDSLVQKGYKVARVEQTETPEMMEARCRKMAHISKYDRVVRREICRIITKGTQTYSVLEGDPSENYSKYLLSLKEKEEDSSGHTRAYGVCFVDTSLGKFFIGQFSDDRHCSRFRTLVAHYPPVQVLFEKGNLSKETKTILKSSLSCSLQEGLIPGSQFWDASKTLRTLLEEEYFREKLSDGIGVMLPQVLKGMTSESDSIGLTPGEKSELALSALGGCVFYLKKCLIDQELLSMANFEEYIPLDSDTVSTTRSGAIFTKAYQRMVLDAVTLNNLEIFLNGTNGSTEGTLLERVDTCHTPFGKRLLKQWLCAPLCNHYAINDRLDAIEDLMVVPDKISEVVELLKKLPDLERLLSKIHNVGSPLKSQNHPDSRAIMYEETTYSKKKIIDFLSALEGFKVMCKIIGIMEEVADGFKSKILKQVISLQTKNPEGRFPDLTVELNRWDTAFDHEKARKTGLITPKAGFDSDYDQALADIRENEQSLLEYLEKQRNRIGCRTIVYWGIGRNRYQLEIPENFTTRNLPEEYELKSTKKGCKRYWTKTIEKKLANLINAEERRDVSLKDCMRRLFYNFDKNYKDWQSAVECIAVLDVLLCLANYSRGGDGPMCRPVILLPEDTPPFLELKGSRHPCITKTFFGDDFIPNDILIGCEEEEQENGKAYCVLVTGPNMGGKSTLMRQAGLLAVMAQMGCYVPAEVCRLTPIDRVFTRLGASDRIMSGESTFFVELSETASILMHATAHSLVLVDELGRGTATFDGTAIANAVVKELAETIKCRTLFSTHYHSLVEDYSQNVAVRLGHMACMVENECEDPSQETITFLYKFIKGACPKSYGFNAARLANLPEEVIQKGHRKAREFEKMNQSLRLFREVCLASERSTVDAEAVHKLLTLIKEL

Compound: Cc1cc(ccc1-c1ccccc1)C(=O)N1CCCN(CC1)C(=O)CCl [compound 10]
Assay: probe-labelled cysteine peptide fold change vs DMSO (competition) (log2 fold change); higher = less target engagement (more negative = stronger competition)
Conditions: THP-1, incubation time: 4 h
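Also: competitive profiling in live THP-1 cells: cysteine peptides tagged with an iodoacetamide desthiobiotin (IA-DTB) probe, intensity after compound treatment relative to DMSO-treated cells.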

Target	probe-labelled cysteine peptide fold change (10 µM)	probe-labelled cysteine peptide fold change (50 µM)
MRPS6_P82932_105_ECEGIVPVPLAEK (UniProt P82932)	-0.316	0.0101
MVP_Q14764_515_RALCLLLGPDFFTDVITIETADHAR (UniProt Q14764)	-0.0584	0.341
MTPN_P58546_83_HHITPLLSAVYEGHVSCVK (UniProt P58546)	0.213	-0.513
MYBBP1A_Q9BQG0_678_SVFGHICSHLTPR (UniProt Q9BQG0)	0.192	0.148
MTHFD1L_Q6UB35_291_LHEADIVVLGSPKPEEIPLTWIQPGTTVLNCSHDFLSGK (UniProt Q6UB35)	0.156	0.392
MRPS2_Q9Y399_162_DCGEYAHTR (UniProt Q9Y399)	-0.0234	0.183
MTERF4_Q7Z6M4_69_SNNYVQEPECR (UniProt Q7Z6M4)	-0.323	-0.662
MYH9_P35579_896_LQLQEQLQAETELCAEAEELRAR (UniProt P35579)	0.0422	-0.964
MRPS9_P82933_233_LLTSQCGAAEEEFVQR (UniProt P82933)	-0.073	0.0391
MTOR_P42345_2243_YAVIPLSTNSGLIGWVPHCDTLHALIR (UniProt P42345)	-0.0623	-0.0381
MRPS22_P82650_231_HVDVLNLCFAQFEPDSTEYIK (UniProt P82650)	0.131	0.0168
MTHFD1L_Q6UB35_906_YTQQGFGNLPICMAK (UniProt Q6UB35)	-0.063	-0.0614
MSH6_P52701_1158+1165_QAGLLAVMAQMGCYVPAEVCR (UniProt P52701)	-0.235	-0.185
